Laboratory results: PubChem BioAssay AID686938 (Drosophila RNAi Screening Center, 2013)
In all, the deposit lists about 23,000 reagents; below is an unselected part of those that have a named target and a result. In the full data, 75 (0.33%) were called active. 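Raw plate signals without normalisation; calls rest on plate z-scores that were not deposited; ratio present for only 364 wells.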 Names joined by + are all predicted targets of the reagent. Not stated in the record: the dose of the treatment.

Assay: 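Fly genes required for calcium entry once internal stores are emptied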 (primary screen)
Cell system: Drosophila S2R+ cells
Reagents: long dsRNA against Drosophila genes, about 0.25 µg dsRNA per well, roughly 10,000 cells
Time to read-out: 5 days of knock-down before the calcium assay
Challenge: thapsigargin (SERCA pump blocker) to empty calcium stores; entry signal taken 4 min after adding it
Measurement: 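Duplicate raw fluo-4 intensities per well from a plate reader, at rest and four minutes after thapsigargin emptied calcium stores; entry-to-rest ratio filled for only some wells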
Reading the numbers: calcium entry signal: higher = stronger calcium signal after store depletion; entry to resting ratio: higher = more calcium entry relative to resting level; resting calcium signal: higher = higher resting calcium signal
Rule for the call: 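Called when the plate z-score of the entry-to-rest ratio, mean of duplicates, falls below −3; wells with low overall dye signal (Fmax z below −2) or more than five off-targets excluded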
Meaning of the calls: active = strongly reduced calcium entry; inactive = no strong reduction

| predicted target | amplicon | calcium entry signal, replicate 1 (fluorescence units) | calcium entry signal, replicate 2 (fluorescence units) | entry to resting ratio | resting calcium signal, replicate 1 (fluorescence units) | resting calcium signal, replicate 2 (fluorescence units) | Outcome |
| --- | --- | --- | --- | --- | --- | --- | --- |
| Nhe1 (GeneID 33167) | DRSC00762 | 3.66e7 | – | – | 1.64e7 | – | inactive |
| CG34200 (GeneID 5740389) | DRSC04804 | 2.67e7 | 4.99e7 | – | 1.42e7 | 2.11e7 | inactive |
| CG18536 (GeneID 37093) | DRSC06763 | 4.63e7 | 7.08e7 | – | 1.96e7 | 2.94e7 | inactive |
| Doc2 (GeneID 39038) | DRSC22716 | 3.42e7 | 2.76e7 | – | 1.86e7 | 1.31e7 | inactive |
| Vps11 (GeneID 317987) | DRSC11909 | 4.11e7 | 4.41e7 | – | 1.91e7 | 1.99e7 | inactive |
| Vps11 (GeneID 317987) | DRSC21579 | 3.77e7 | 3.09e7 | – | 2.30e7 | 1.53e7 | inactive |
| CG5554 (GeneID 37775) | DRSC04513 | 4.48e7 | 5.22e7 | – | 2.32e7 | 2.48e7 | inactive |
| CG14629 (GeneID 31055) | DRSC18476 | 3.78e7 | 4.94e7 | 1.8 | 2.06e7 | 2.23e7 | inactive |
| CG12817 (GeneID 41250) | DRSC14555 | 3.40e7 | 3.06e7 | – | 1.65e7 | 1.65e7 | inactive |
| CG13068 (GeneID 39784) | DRSC09951 | 4.70e7 | 6.02e7 | – | 2.25e7 | 2.32e7 | inactive |
| igl (GeneID 36681) | DRSC07631 | 2.01e7 | 2.21e7 | – | 9.78e6 | 1.12e7 | inactive |
| ND-18 (GeneID 32936) | DRSC19441 | 4.80e7 | 4.43e7 | – | 2.45e7 | 1.96e7 | inactive |
| Mur2B (GeneID 31111) | DRSC18545 | 6.35e7 | 5.21e7 | 2.5 | 2.58e7 | 2.16e7 | inactive |
| Mur2B (GeneID 31111) | DRSC18546 | 4.67e7 | 4.25e7 | 1.9 | 2.43e7 | 2.07e7 | inactive |
| Ipk1 (GeneID 37360) | DRSC04235 | 3.51e7 | – | – | 1.68e7 | – | inactive |
| Ipk1 (GeneID 37360) | DRSC04236 | 4.41e7 | 5.21e7 | – | 2.12e7 | 2.32e7 | inactive |
| Ipk1 (GeneID 37360) | DRSC04237 | 4.08e7 | 4.88e7 | – | 1.98e7 | 2.22e7 | inactive |
| CG6661 + asRNA:CR42871 | DRSC10687 | 2.18e7 | 3.28e7 | – | 1.02e7 | 1.90e7 | inactive |
| CG11882 (GeneID 43446) | DRSC14425 | 2.98e7 | 3.11e7 | – | 1.56e7 | 1.48e7 | inactive |
| Cep164 (GeneID 32563) | DRSC20163 | 3.87e7 | 2.99e7 | – | 2.10e7 | 1.37e7 | inactive |
| CG7227 (GeneID 34088) | DRSC03032 | 4.58e7 | – | – | 2.34e7 | – | inactive |
| Mgtor (GeneID 36264) | DRSC05958 | 3.30e7 | 3.18e7 | – | 1.34e7 | 1.21e7 | inactive |
| Spn47C (GeneID 36163) | DRSC07030 | 2.56e7 | 2.75e7 | – | 1.20e7 | 1.32e7 | inactive |
| CG13056 (GeneID 50267) | DRSC09937 | 4.17e7 | 6.26e7 | – | 2.13e7 | 2.70e7 | inactive |
| kibra (GeneID 41783) | DRSC14533 | 3.00e7 | 4.36e7 | – | 1.49e7 | 5.18e7 | inactive |
| kibra (GeneID 41783) | DRSC16257 | 1.76e7 | 2.62e7 | – | 1.08e7 | 5.91e7 | inactive |
| kibra (GeneID 41783) | DRSC23283 | 3.86e7 | 4.50e7 | – | 2.06e7 | 2.07e7 | inactive |
| CG1074 (GeneID 40564) | DRSC12143 | 4.05e7 | 3.53e7 | – | 1.82e7 | 1.67e7 | inactive |
| CG5757 (GeneID 37062) | DRSC06951 | 4.06e7 | 4.02e7 | – | 1.88e7 | 1.90e7 | inactive |
| CG10035 (GeneID 41511) | DRSC14177 | 3.14e7 | 3.89e7 | – | 1.63e7 | 2.14e7 | inactive |
| asRNA:CR43477 + CG12256 | DRSC14484 | 3.62e7 | 2.66e7 | – | 1.84e7 | 1.46e7 | inactive |
| CG3257 (GeneID 37862) | DRSC04351 | 4.45e7 | – | – | 2.18e7 | – | inactive |
| CG8839 (GeneID 36340) | DRSC07285 | 3.07e7 | 4.10e7 | – | 1.43e7 | 1.90e7 | inactive |
| Ibf1 (GeneID 41103) | DRSC16419 | 3.64e7 | 3.65e7 | – | 1.76e7 | 1.68e7 | inactive |
| CG10055 (GeneID 40862) | DRSC12503 | 4.88e7 | 3.26e7 | – | 2.45e7 | 1.68e7 | inactive |
| CG42715 (retired record) (GeneID 10178969) | DRSC05499 | 4.07e7 | 3.60e7 | – | 3.83e7 | 1.69e7 | inactive |
| Spn43Ab (GeneID 45040) | DRSC06781 | 3.21e7 | 3.88e7 | – | 1.57e7 | 1.75e7 | inactive |
| AkhR (GeneID 33942) | DRSC03329 | 3.42e7 | – | – | 1.60e7 | – | inactive |
| CG3649 (GeneID 37626) | DRSC04400 | 4.28e7 | 4.65e7 | – | 2.08e7 | 2.02e7 | inactive |
| Rdh (GeneID 2769007) | DRSC08063 | 3.92e7 | 4.65e7 | – | 2.08e7 | 2.20e7 | inactive |
| Rdh (GeneID 2769007) | DRSC08434 | 2.61e7 | 2.86e7 | – | 1.67e7 | 1.66e7 | inactive |
| emei (GeneID 39250) | DRSC10897 | 3.10e7 | 3.75e7 | – | 1.55e7 | 1.93e7 | inactive |
| emei (GeneID 39250) | DRSC22684 | 2.37e7 | 1.90e7 | – | 1.27e7 | 1.05e7 | inactive |
| CG9458 (GeneID 41214) | DRSC16495 | 4.27e7 | 3.96e7 | – | 2.10e7 | 2.25e7 | inactive |
| CarT (GeneID 35334) | DRSC03196 | 2.76e7 | – | – | 1.42e7 | – | inactive |
| Ppox (GeneID 42939) | DRSC17033 | 2.83e7 | 4.55e7 | – | 1.62e7 | 1.85e7 | inactive |
| CG16782 (GeneID 31313) | DRSC18118 | 3.39e7 | 6.85e7 | 2.1 | 1.60e7 | 2.64e7 | inactive |
| nst (GeneID 39434) | DRSC09755 | 4.19e7 | 4.13e7 | – | 2.67e7 | 1.67e7 | inactive |
| Lip2 (GeneID 43980) | DRSC02577 | 3.34e7 | 4.51e7 | – | 1.36e7 | 1.98e7 | inactive |
| Lip2 (GeneID 43980) | DRSC02578 | 2.52e7 | 3.84e7 | – | 1.26e7 | 1.83e7 | inactive |
| Bub1 (GeneID 33758) | DRSC02357 | 5.42e7 | – | – | 2.63e7 | – | inactive |
| Bub1 (GeneID 33758) | DRSC23158 | 3.35e7 | 3.44e7 | – | 1.60e7 | 1.53e7 | inactive |
| Vajk1 (GeneID 34809) | DRSC01882 | 4.71e7 | 2.79e7 | – | 1.84e7 | 1.29e7 | inactive |
| CG7430 (GeneID 39988) | DRSC10845 | 3.76e7 | 3.97e7 | – | 1.73e7 | 2.76e7 | inactive |
| PDCD-5 (GeneID 39776) | DRSC09955 | 3.40e7 | 4.88e7 | – | 1.53e7 | 1.81e7 | inactive |
| CG15237 (GeneID 35591) | DRSC04971 | 3.58e7 | 2.47e7 | – | 1.72e7 | 1.14e7 | inactive |
| Bruce (GeneID 41260) | DRSC16015 | 3.51e7 | 3.41e7 | – | 1.45e7 | 1.70e7 | inactive |
| CG32820 + CG17450 + CG32819 | DRSC21803 | 4.20e7 | 3.40e7 | – | 2.36e7 | 1.60e7 | inactive |
| CG32820 + CG17450 + CG32819 | DRSC22812 | 2.81e7 | 4.25e7 | – | 1.42e7 | 2.27e7 | inactive |
